Here are results for 4 substances from PMC7245964.

In the assay the target is T1, Hansenula polymorpha Cdc13 (Hansenula polymorpha DL-1 (ATCC 26012, Ogataea parapolymorpha DL-1)) (UniProt W1QJ57).
T1 sequence: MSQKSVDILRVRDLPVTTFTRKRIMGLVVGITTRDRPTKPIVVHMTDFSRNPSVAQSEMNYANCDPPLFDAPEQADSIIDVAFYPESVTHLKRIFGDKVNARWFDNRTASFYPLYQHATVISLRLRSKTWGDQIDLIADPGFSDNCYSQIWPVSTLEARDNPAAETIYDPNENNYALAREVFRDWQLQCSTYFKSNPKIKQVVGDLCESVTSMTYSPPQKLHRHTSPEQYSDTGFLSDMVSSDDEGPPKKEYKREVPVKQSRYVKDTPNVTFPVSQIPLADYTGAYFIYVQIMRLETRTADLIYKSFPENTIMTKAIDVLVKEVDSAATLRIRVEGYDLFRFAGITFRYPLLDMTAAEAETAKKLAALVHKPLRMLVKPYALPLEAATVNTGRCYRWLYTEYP
Nature of the assay: two-hybrid; Gal4-BD (pGBKT7) and Gal4-AD (pGADT7) fusions cotransformed into S. cerevisiae AH109; HIS3 reporter, growth on SC-Leu-Trp-His; 30°C for four days.

These are yes or no findings as the source states them, for the method shown. Binding calls can cover weak binding; strength is not graded here.

For the substance “Hansenula polymorpha Est1 fragment, residues 1-591 (domain or fragment)”, the binding result is listed as “no binding”.
The result for Hansenula polymorpha Stn1 reads “binds”; that for Hansenula polymorpha Ten1, “no binding”.
With “Hansenula polymorpha telomerase reverse transcriptase”, the binding entry is given as “binds”.
